The source of these data is patent US20070232520A1.

Protein sequences, listed by entry. Tags and fused reporters are not part of them. Residues count along the entry.
UniProt P20333, residues 23-461: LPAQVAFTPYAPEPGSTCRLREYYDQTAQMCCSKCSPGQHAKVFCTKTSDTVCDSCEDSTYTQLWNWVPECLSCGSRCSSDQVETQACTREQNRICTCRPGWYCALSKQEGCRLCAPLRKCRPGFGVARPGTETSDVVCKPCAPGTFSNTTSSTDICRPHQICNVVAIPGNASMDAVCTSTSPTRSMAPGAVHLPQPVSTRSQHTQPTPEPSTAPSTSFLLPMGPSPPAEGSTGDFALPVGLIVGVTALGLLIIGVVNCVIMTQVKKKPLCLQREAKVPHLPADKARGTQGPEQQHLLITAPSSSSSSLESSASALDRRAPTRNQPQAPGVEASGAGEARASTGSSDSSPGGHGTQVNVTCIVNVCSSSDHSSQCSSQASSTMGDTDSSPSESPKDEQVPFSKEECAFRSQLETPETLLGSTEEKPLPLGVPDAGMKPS

No constants are given. Whether binding was seen depends on the method and setting. Binding seen in cells or lysates may run through a third protein. Some entries that bind do so weakly or less than the wild type.

Assay [1] addresses p75 (p75 TNF-R expressed in transfected HeLa cells) (UniProt P20333). In words: coprecipitation (coIP) with p75 from transfected HeLa cells.
Assay [2] has the same target. In words: coprecipitation from transfected HeLa cells.

B1: E19 (p75IC-binding protein encoded by clone E19) (protein)
chain: EAAGRERERTLEYAEAHAFKSPSKENKKKDKDMLEDKFKSNNLEREQEQLDRIVKESGGKLTRRLVNSQCEFERRKPDGTTTLGLLHPVDPIVGEPGYCPVRLGMTTGRLQSGVNTLQGFKEDKRNKVTPVLYLELWAPTVLYAPHYDSTFANYQQGLI
As for B1, the binding result in assay [1] and in assay [2] was “binds” in each case.

B2: protein encoded by the 230 clone (protein)
chain: GPIREAGLAGWLALGCSGPPAEAAGGAGEPWPQHSGKGQLAGRNAWVKKRKAPRENSPGVRSCRASGRASRPHGDPFLLTLPRARHPVTLNVTIQVSLKQRNVRFNTPFRRGEN
With B2, the binding result in assay [1] and in assay [2] was “binds” throughout.
